Assay results reported in PubChem BioAssay AID493014 (National Center for Advancing Translational Sciences (NCATS), 2011).
The other results are listed elsewhere or left out. Shown are side measurements of this screen, not its main read-out; they come without a call. The list favours compounds with an active or inconclusive main result. Potencies come from curve fits of mixed quality, noted in brackets.

Assay: qHTS Assay to Find Inhibitors of Chronic Active B-Cell Receptor Signaling
Settings: ABC-DLBCL IkBa-CBG/CBR reporter, luminescence ratio (green luciferase fused to IkBa over red control in TMD8 lymphoma cells), 4 h
Summary of the method: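 TMD8 human ABC-DLBCL cells with doxycycline-inducible IκBα–green luciferase fusion and unfused red luciferase, in 0.5% FBS medium; compounds up to 46 uM, 4 h at 37C. Green/red luminescence ratio, filter-overlap corrected, fitted to concentration-response curves.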

[1] = measured here: CBR red luminescence, cell number
[2] = measured here: IkBa-CBG green luminescence

Compound	AC50 [1]	AC50 [2]
COc1ccc(CNC(=O)c2ccc(Cn3nc(C)c([N+](=O)[O-])c3C)o2)cc1	2.82 µM [falling, partial curve, poor fit]	
O=c1oc2ccccc2cc1-c1nc(-c2cccs2)no1	14.1 µM [falling, partial curve, poor fit]	
O=C(COS(=O)c1ccccc1)Nc1cc(Cl)ccc1N1CCOCC1 (stereo not given)	22.4 µM [falling, single point]	
COc1cc(C(=O)NC(=S)Nc2ccc(Cl)cn2)cc(OC)c1OC	3.16 µM [rising, partial curve, poor fit]	
CS(=O)(=O)c1ccc(Cl)c(NC(=O)Nc2ccccc2)c1	35.5 µM [falling, single point]	
CCN(Cc1ccc(OC)c(COC)c1)CC1CCCN(CCc2cccc(F)c2)C1 (stereo not given)	35.5 µM [falling, single point]	
COc1ccccc1OCCOc1ccccc1/C=N/n1cnnc1	23.1 µM [falling, partial curve, poor fit]	
Oc1[nH]c2ccccc2c1N=Nc1ccc(F)cc1	20.6 µM [falling, single point]	
Cc1ccc2cc(C(c3nnnn3Cc3ccccc3)N3CCc4ccccc43)c(=O)[nH]c2c1 (stereo not given)	0.461 µM [falling, partial curve, poor fit]	
O=C(NCC(=O)N1CCCCC1)c1ccc2ccccc2c1	8.91 µM [falling, partial curve]	
CCS(=O)(=O)N1CCN(c2ccccc2F)CC1	8.2 µM [rising, partial curve, poor fit]	
Cc1cccc(NS(=O)(=O)c2cc(C(=O)OC(C)C(=O)NCc3ccc4c(c3)OCO4)ccc2C)c1 (stereo not given)	23.1 µM [falling, single point]	
CCc1ccc(-c2nc(CS(=O)CC(=O)NCCCN3CCOCC3)c(C)o2)cc1 (stereo not given)	14.1 µM [falling, partial curve, poor fit]	
O=C(NN1C(=O)c2ccccc2C1=O)c1ccccc1[N+](=O)[O-]	14.1 µM [falling, single point]	
CCOC(=O)c1c(/N=C/N(C)C)sc(/C=N/Nc2ccccc2)c1-c1ccccc1	10.3 µM [falling, partial curve]	
COc1cc(OC)cc(Oc2ccc(S(=O)(=O)N3CCCCC3)cc2[N+](=O)[O-])c1	20 µM [falling, single point]	
CC(=O)c1cc(-c2ccc(F)cc2)n(CCC(=O)Nc2nc3ccc(C)cc3s2)c1C	7.94 µM [rising, partial curve, poor fit]	
Cc1ccc(-c2cc(C(=O)N3CCN(c4ncccn4)CC3)c3cc(Br)ccc3n2)o1	11.2 µM [falling, partial curve]	
Cc1cc2cc(CNC(=O)Cc3cccs3)ccc2n1C	12.6 µM [falling, single point]	
O=C(O)CCC(=O)Nc1ccccc1C(=O)NC1CCCCC1	29.1 µM [falling, single point]	
COc1ccccc1NC(=O)c1ccc2[nH]c(C)c(C)c2c1	0.1 µM [rising, full curve, poor fit]	

Reprinted at random: 3 compounds from above
Compound	AC50 [1]	AC50 [2]
COc1cc(OC)cc(Oc2ccc(S(=O)(=O)N3CCCCC3)cc2[N+](=O)[O-])c1	20 µM [falling, single point]	
O=c1oc2ccccc2cc1-c1nc(-c2cccs2)no1	14.1 µM [falling, partial curve, poor fit]	
Cc1ccc2cc(C(c3nnnn3Cc3ccccc3)N3CCc4ccccc43)c(=O)[nH]c2c1 (stereo not given)	0.461 µM [falling, partial curve, poor fit]	

An excerpt from above in order of count of non-hydrogen atoms, low to high:
Compound	AC50 [1]	AC50 [2]
O=C(NN1C(=O)c2ccccc2C1=O)c1ccccc1[N+](=O)[O-]	14.1 µM [falling, single point]	
COc1ccccc1OCCOc1ccccc1/C=N/n1cnnc1	23.1 µM [falling, partial curve, poor fit]	
Cc1cccc(NS(=O)(=O)c2cc(C(=O)OC(C)C(=O)NCc3ccc4c(c3)OCO4)ccc2C)c1 (stereo not given)	23.1 µM [falling, single point]	

Continued.

Compound	AC50 [1]	AC50 [2]
COc1cc(C(CC(=O)Nc2ncccc2C)N2Cc3ccccc3C2=O)cc(OC)c1OC (stereo not given)	0.112 µM [rising, full curve, poor fit]	
COCc1cc(=O)n2[nH]c(C)c(-c3ccccc3)c2n1	25.1 µM [falling, partial curve, poor fit]	
COc1ccc(NC(=S)Nc2ccc(N)c([N+](=O)[O-])c2)cc1	1.64 µM [falling, partial curve, poor fit]	
N/C(=N\OC(=O)CSc1ccccc1)c1ccccn1	2.51 µM [falling, full curve, poor fit]	
Cc1c(O)cccc1C(=O)N[C@@H](CSc1ccccc1)[C@H](O)CN1C[C@H]2CCCC[C@H]2C[C@H]1C(=O)NC(C)(C)C	10 µM [falling, partial curve]	15.8 µM [rising, partial curve, poor fit]
COc1cc(=O)n2c(-c3ccccc3)csc2n1	2.24 µM [rising, full curve, poor fit]	
COc1ccc(/C=C2\SC(=S)N(N3C(=O)CCC3=O)C2=O)cc1O	35.5 µM [falling, single point]	
CCOC(=O)Nc1sc2c(c1C#N)CCCC2	10.3 µM [rising, partial curve, poor fit]	
CC(C)[C@H]1COCCS(=O)(=O)N1Cc1ccccc1-c1ccc(F)cc1	5.17 µM [falling, partial curve, poor fit]	
Clc1ccc(CN2CCc3c([nH]c4ccccc34)C2)cc1Cl	35.5 µM [falling, single point]	
Cc1ccc(NC(=O)CN2C(=O)NC(C)(C3CC3)C2=O)c(C)c1 (stereo not given)	6.51 µM [rising, partial curve, poor fit]	
CC(C)CNC(=S)NC(=O)c1ccc(Cl)cc1	16.4 µM [rising, partial curve, poor fit]	
Clc1ccc(OCCCCSc2ncccn2)cc1	1.16 µM [rising, partial curve]	
O=C(COC(=O)c1cccnc1Nc1cccc(C(F)(F)F)c1)NCc1ccc2c(c1)OCO2	0.708 µM [rising, full curve, poor fit]	
Oc1ccc(-c2nccc(-c3ccc(Br)cc3)n2)cc1	7.08 µM [rising, partial curve, poor fit]	
O=C(N/N=C/c1ccsc1)c1cc(-c2cccs2)nc2ccccc12	6.51 µM [rising, partial curve]	18.4 µM [falling, single point]
O=C(Nc1ccc2c(c1)OCCO2)c1cccs1	14.6 µM [falling, partial curve, poor fit]	
COc1ccccc1C(=O)NCCC(=O)N(C)CC(=O)Nc1ccccc1Br	20.6 µM [rising, single point]	
Cc1cccc(Oc2sc(C(=O)c3ccccc3)c(N)c2C#N)c1C	22.4 µM [falling, partial curve, poor fit]	
O=C1OCCN1C(=O)[C@H]1[C@H](c2ccc(F)cc2)C(c2ccccc2)=NN1c1ccc(Br)cc1	29.1 µM [rising, single point]	
COc1ccc(-n2c(COc3ccc4ccccc4c3)nnc2SCC(=O)NCc2ccco2)cc1	29.1 µM [falling, single point]	

Compound	AC50 [1]	AC50 [2]
COc1cccc(NC(=O)CSc2ncc(S(=O)(=O)c3ccccc3)c(=O)[nH]2)c1	35.5 µM [falling, single point]	
Cc1cccc(CN2C(=O)N/C(=C/c3cc(C)n(-c4cc(C)ccn4)c3C)C2=O)c1	29.1 µM [falling, single point]	
COc1cccc(C(=O)Oc2cc(-c3ccccc3)no2)c1	7.31 µM [falling, single point]	
COc1ccccc1-c1cc(N)n[nH]1	4.11 µM [falling, full curve]	
O=C(CN1C(=O)C2C3CCC(C3)C2C1=O)OCC(=O)c1ccccc1 (stereo not given)	25.1 µM [rising, single point]	
CC(=O)c1ccsc1-c1c(C)cc2oc(=O)cc(-c3ccccc3)c2c1C	6.51 µM [rising, single point]	2.91 µM [falling, full curve]
c1ccc(-c2ccc(OCCCn3cncn3)cc2)cc1	0.461 µM [rising, full curve]	
CC(C)c1ccc(NC(=O)Cc2cn(C)c3ccccc23)cc1	3.55 µM [rising, full curve]	
CCSc1ccc2c(c1)N(CCCN1CCN(C)CC1)c1ccccc1S2	23.1 µM [falling, single point]	
CCOc1ccc(S(=O)(=O)N(C)c2ccc(OCC(=O)Nc3nc(-c4cc(OC)ccc4OC)cs3)cc2)cc1	32.6 µM [rising, partial curve, poor fit]	
COc1cc(Br)cc(-c2nc3c(c(=O)[nH]c(=O)n3Cc3ccccc3)n2C)c1O	35.5 µM [falling, single point]	
CCN(CC)S(=O)(=O)c1ccc(-c2nnc(SCC(=O)N3CCc4ccccc43)o2)cc1	3.66 µM [falling, partial curve, poor fit]	
O=C(CSc1nnc(-c2cccnc2)n1Cc1ccco1)N1c2ccccc2Sc2ccccc21	0.0651 µM [falling, full curve]	
Cc1ccc(S(=O)(=O)N2CCOCC2)cc1NC(=O)C(c1ccc(Cl)cc1)C(C)C (stereo not given)	20.6 µM [falling, single point]	
Cc1cc(NC(=O)CSCC(=O)OCC(=O)c2cccc(Br)c2)no1	32.6 µM [rising, partial curve, poor fit]	
COc1cccc(-c2c(C(=O)N/N=C/c3ccoc3)nnn2-c2nonc2N)c1	20 µM [falling, single point]	
COc1ccc(S(=O)(=O)N(C)C)cc1NC(=O)CSc1nc(N)cc(N)n1	6.31 µM [rising, full curve, poor fit]	
Cc1nc(NCc2cccnc2)c2c3c(sc2n1)CC(C)CC3 (stereo not given)	12.6 µM [rising, partial curve]	
COc1ccc(-c2cc(-c3ccccc3)nc3ncnn23)cc1	11.2 µM [falling, single point]	
COc1ccccc1C(=O)NN=C1CCN(Cc2ccccc2)CC1	0.058 µM [falling, full curve, poor fit]	
